Assay results taken from paper PMC10951710.
These are yes or no findings as the source states them, for the method shown. In cells and extracts the contact can be indirect. These calls come from enrichment with a bait or labelling near it, and not all partners need be listed. Sequences can lack the tags named with a protein.

T1: MKK1-TurboID-Hisx8 fusion protein (mitogen-activated protein kinase kinase 1 fused to TurboID) (Arabidopsis thaliana) (UniProt Q94A06)
T1 sequence: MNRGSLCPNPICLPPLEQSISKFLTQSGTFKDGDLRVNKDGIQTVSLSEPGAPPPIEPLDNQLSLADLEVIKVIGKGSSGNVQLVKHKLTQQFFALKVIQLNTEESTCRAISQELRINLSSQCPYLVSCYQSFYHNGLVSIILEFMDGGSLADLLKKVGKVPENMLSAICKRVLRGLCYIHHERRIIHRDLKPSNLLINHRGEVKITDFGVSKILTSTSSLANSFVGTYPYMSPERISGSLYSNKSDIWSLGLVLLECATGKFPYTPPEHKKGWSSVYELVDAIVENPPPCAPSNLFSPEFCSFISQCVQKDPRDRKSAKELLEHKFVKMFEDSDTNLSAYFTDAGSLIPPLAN

T2: MKK2-TurboID-Hisx8 fusion protein (mitogen-activated protein kinase kinase 2 fused to TurboID) (Arabidopsis thaliana) (UniProt Q9S7U9)
T2 sequence: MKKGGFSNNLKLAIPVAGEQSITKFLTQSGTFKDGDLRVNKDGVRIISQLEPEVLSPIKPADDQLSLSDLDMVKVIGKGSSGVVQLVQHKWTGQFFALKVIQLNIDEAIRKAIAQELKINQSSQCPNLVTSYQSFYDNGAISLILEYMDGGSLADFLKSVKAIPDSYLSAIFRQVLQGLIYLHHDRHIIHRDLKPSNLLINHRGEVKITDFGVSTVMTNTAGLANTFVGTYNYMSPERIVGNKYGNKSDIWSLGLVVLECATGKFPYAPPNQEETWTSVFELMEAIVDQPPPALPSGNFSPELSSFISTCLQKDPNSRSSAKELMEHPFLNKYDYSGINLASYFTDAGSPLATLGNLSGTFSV

B1: GRAM domain family protein (GEM) (protein, UniProt Q8S8F8 1-299)
chain: MEPPKGDTVVKTEVPVKDPSLSVVDSKTKGVEDANTEIALSDEVEIETKGSDSTPVKAPSRTSSGSKKSVHWSPELVSGSQEPDQKAASSSSAGSNPYIARSPAETSDASLKDTMETVKGVLGRWGKRVAEAAKKTESLAGNTWQHLRTAPSFADAAMGRIAQSTKVFAEGGYEKIFRQTFETDPEEQLLNSFACYLSTSAGPVMGVLYISSAKLAYCSDNPLSYKNGDQTEWSYYKVVIPLHQLKAVNPSASIVNPAEKYIQVISVDNHEFWFMGFLNYDGAVTSLQDSLQAGALRSV
B2: A member of the Arabidopsis LIM proteins (WLIM1) (protein, UniProt Q94JX5 1-190)
chain: MAFAGTTQKCMACDKTVYLVDKLTADNRVYHKACFRCHHCKGTLKLSNYNSFEGVLYCRPHFDQNFKRTGSLEKSFEGTPKIGKPDRPLEGERPAGTKVSNMFGGTREKCVGCDKTVYPIEKVSVNGTLYHKSCFKCTHGGCTISPSNYIAHEGKLYCKHHHIQLIKEKGNLSQLEGGGENAAKDKVVAA
B3: D-lactate dehydrogenase (DUF668) (PSI3) (protein, UniProt P0DO24 1-649)
chain: MGSFCSKSLGINFGSEYSGSSVADDGREPDFGHSQPNGQTSLIVPGMRQLMVKDVKEQNQLKDVFSFREREAEDNFYDGIPTYTMAPSQKIRSAKSTQTAVSKVTEASKLLGKAGLGRAKDVLDTLGSSMTDLSSGGFTSGVATKGNELGILAFEVANTIVKSSNLIESLSKRNIEHLKGTILYSEGVQNLVSNDFDELLRLVAADKRQELQVFSGEVVRFGNRSKDFQWHNLQRYFDRISKELTPQRQLKEDAVLVVDQLMVLVQYTAELYQELQVLYRLEKDYEQKRREEENSANSSKGDGLAILKTELKAQRKVVKSLKKKSLWSRGFEEVMEKLVDIVHFLLLEIHNIFGGADDQPSKKGAAEYDKRLGPAGLALHYANIIVQIDTLVARASSITSNARDSLYQSLPPGIKLALRSKIKSFNVDKELSVTQIKDEMERTLHWLVPVAGNTTKAHHGFGWVGEWANTGTDFTSKPSGGDILRIETLYHASKEKTEIYILGQIIWLQHLVTKAKSDARGGPRLSSIKSPLDTTNQQLISEPLSVPIVTDEEQKMLQEASKRKRTPCVSKSQDFDSEYSRARKCDPLSKSSEYFRGVRRSKSAAVKRYSSGFPLLDFAIDKEKVLDVIDRVDVPRDYKALLKEGSLSF
B4: Peroxin 22 (PEX22) (protein, UniProt Q9LSX7 1-283)
chain: MAESSSPSPTEEIVRLIKRLSAYVAFKMSSLFSTTSIRNLDSRSIGAIAGLAIAVIFTWRAIRTPGEQRQRRQPKRRIHNAETSSAAAAASQSNLASSVAPEVSSPREDNAVQDVVDQFFQPVKPTLGQIVRQKLSEGRKVTCRLLGVILEETSPEELQKQATVRSSVLEVLLEITKYSDLYLMERVLDDESEAKVLQALENAGVFTSGGLVKDKVLFCSTEIGRTSFVRQLEPDWHIDTNPEISTQLARFIKYQLHVATVKPERTAPNVFTSQSIEQFFGSV
B5: RNA helicase 40 (RH40) (protein, UniProt Q9SQV1 1-1088)
chain: MATTEDTPASAGPRYAPEDPTLPQPWKGLIDGSTGILYYWNPETNVTQYERPSAPPPHSATTPKLAQIPVPSSGQGHQAQHEQAKPVGHVSQQHGFQQQPQQFPSQHVRPQMMQQHPAQQMPQQSGQQFPQQQSQSMVPHPHGHPSVQTYQPTTQQQQQGMQNQHSQMPQQLSHQYAHSQQHYMGFRPHMQTQGLQNSHQTPQGGPHGQQFPSQQEYNSLAPKREGDEFHGGKKTGFSQPHLPNSERSPSQNTHFEANAASQKTNANLAMAQKCNGPQANAAVTQFQQPGANLIHQQLGPRAPNQMDQTMLHQKSHVSPFQSNNTYENNLQSRPGNDSYVNMRMEVPVRGAQPLHPAAMPKDIRISGGPPTNADPAMGQTGHGTYGHAGPAFPNKSLVRPHFVTSPDVPHLSPVEIYRKQHEVTTTGENIPAPYITFESSGLPPEILRELLSAGFPSPTPIQAQTWPIALQSRDIVAIAKTGSGKTLGYLIPAFILLRHCRNDSRNGPTVLILAPTRELATQIQDEALRFGRSSRISCTCLYGGAPKGPQLKELERGADIVVATPGRLNDILEMKMIDFQQVSLLVLDEADRMLDMGFEPQIRKIVNEIPPRRQTLMYTATWPKEVRKIASDLLVNPVQVNIGRVDELAANKAITQYVEVVPQMEKERRLEQILRSQERGSKVIIFCSTKRLCDHLARSVGRHFGAVVIHGDKTQGERDWVLNQFRSGKSCVLIATDVAARGLDIKDIRVVINYDFPTGVEDYVHRIGRTGRAGATGVAFTFFTEQDWKYAPDLIKVLEGANQQVPPQVRDIAMRGGGGGGPGYSQDRRGMVNRFDSGGGGTRWDSGGGFGGRGGGFSGREGGFGGREGGFGGREGGFGGRGGRFGMRDDSFGRGGNRGRGFTGPDAGHMNVGGRGGFGRFGNNNNMESRGFGRGSGRGFGRGVGRFDNRRGRSRSRSPDLVRPRRRSSSYSRSRSRSGSYSRSRSRSRSWSRSRSRSPRHSRDRGGHNRSRSYSRSPSPVYERRDRAPRVSGFDIKPPVESVVNLDMNAAAAIENVVPTSLSERQGNGVVESEVEAALVRPVVDEEP
B6: D111/G-patch domain-containing protein (DRT111) (protein, UniProt P42698 1-387)
chain: MLGGLYGDLPPPTDDEKPSGNSSSVWSSSTKMAPPTLRKPPAFAPPQTILRPLNKPKPIVSAPYKPPPPSNSSQSVLIPANESAPSHQPALVGVTSSVIEEYDPARPNDYEEYKREKKRKATEAEMKREMDKRRQEDEERDKREREEREKERERDNSDPSRLNISGEEAWKRRAAMSGGGSGGKGRSSSPPGNVDGFSIGKSETSGLGVGAGGQMTAAQRMMAKMGWKQGQGLGKSEQGITTPLMAKKTDRRAGVIVNASENKSSSAEKKVVKSVNINGEPTRVLLLRNMVGPGQVDDELEDEVGGECGKYGTVTRVLIFEITEPNFPVHEAVRIFVQFSRPEETTKALVDLDGRYFGGRTVRATFYDEEKFSKNELAPVPGEIPGY
B7: Splicing factor, putative (protein, UniProt Q9FMF9 1-1269)
chain: MADLDPEIAKTQEERRKMEADLASLTSLTFDRDLYGGNDRASYSTSIAPNEEDDANLDTTGSLVAQRLASYTAPRSILNDVARPHNEDDDVGFKPRQSIAEREGEYRNRRLNRVLSPDRVDAFAMGDKTPDASVRTYTDHMRETALQREKEETMRLIAKKKKEEEEAAAKHQKDSAPPPPASSSSSSSKRRHRWDLPEEDGAAAKKAKAASSDWDLPDAAPGIGRWDAPTPGRVSDATPSAGRRNRWDETPTPGRVTDSDATPGGGVTPGATPSGVTWDGLATPTPKRQRSRWDETPATMGSATPMGGVTPGAAYTPGVTPIGGIDMATPTPGQLIFRGPMTPEQLNMQRWEKDIEERNRPLSDEELDAMFPKDGYKVLDPPATYVPIRTPARKLQQTPTPMATPGYVIPEENRGQQYDVPPEVPGGLPFMKPEDYQYFGSLLNEENEEELSPEEQKERKIMKLLLKVKNGTPPQRKTALRQLTDKARELGAGPLFNKILPLLMQPTLEDQERHLLVKVIDRILYKLDEMVRPYVHKILVVIEPLLIDEDYYARVEGREIISNLSKAAGLASMIAAMRPDIDNIDEYVRNTTARAFSVVASALGIPALLPFLKAVCQSKRSWQARHTGIKIVQQIAILIGCAVLPHLRSLVEIIEHGLSDENQKVRTITALSLAALAEAAAPYGIESFDSVLKPLWKGIRSHRGKVLAAFLKAIGFIIPLMDAIYASYYTKEVMVILIREFQSPDEEMKKIVLKVVKQCVSTEGVEPEYIRSDILPEFFRNFWTRKMALERRNYKQLVETTVEVANKVGVADIVGRVVEDLKDESEQYRRMVMETIDKVVTNLGASDIDARLEELLIDGILYAFQEQTSDDANVMLNGFGAVVNALGQRVKPYLPQICGTIKWRLNNKSAKVRQQAADLISRIAVVMKQCGEEQLMGHLGVVLYEYLGEEYPEVLGSILGALKAIVNVIGMTKMTPPIKDLLPRLTPILKNRHEKVQENCIDLVGRIADRGAEFVPAREWMRICFELLEMLKAHKKGIRRATVNTFGYIAKAIGPQDVLATLLNNLKVQERQNRVCTTVAIAIVAETCSPFTVLPALMNEYRVPELNVQNGVLKSLSFLFEYIGEMGKDYIYAVTPLLEDALMDRDLVHRQTAASAVKHMALGVAGLGCEDALVHLLNFIWPNIFETSPHVINAVMEAIEGMRVALGAAVILNYCLQGLFHPARKVREVYWKIYNSLYIGAQDTLVAAYPVLEDEQNNVYSRPELTMFV
B8: Alfin-like 2 (AL2) (protein, UniProt Q9SRM4 1-246)
chain: MAAAAVSSNPRTVEEIFKDYSARRAALLRALTKDVDDFYSQCDPEKENLCLYGHPNESWEVNLPAEEVPPELPEPALGINFARDGMQRKDWLSLVAVHSDCWLLSVSFYFGARLNRNERKRLFSLINDLPTLFDVVTGRKAMKDNKPSSDSGSKSRNGTKRSIDGQTKSSTPKLMEESYEEEEEEDEHGDTLCGSCGGHYTNEEFWICCDVCERWYHGKCVKITPAKAESIKQYKCPPCCAKKGRQ

The molecules below were run against T1, MKK1-TurboID-Hisx8 fusion protein (mitogen-activated protein kinase kinase 1 fused to TurboID) (Arabidopsis thaliana) (assay: proximity labelling; in planta TurboID labelling in MKK1-ID or MKK2-ID transgenic Arabidopsis against TurboID-only (ID) plants; 150 uM biotin and 5 uM estradiol in the medium, 5 min wind of 4 m/sec; denaturing extraction, streptavidin enrichment of biotinylproteins and biotinylpeptides, LC-MS/MS, iBAQ quantitation; hits at log2-ratio >= 1.58 and BH-FDR <= 0.05).

Molecule | binding
e1a2 subunit of branched chain ketoacid dehydrogenase (BCKDH) complex (E1A2) | binds

These molecules were tested against T2, MKK2-TurboID-Hisx8 fusion protein (mitogen-activated protein kinase kinase 2 fused to TurboID) (Arabidopsis thaliana) in the same assay as above.

Molecule | binding
B1 | binds
B2 | binds
B3 | binds
B4 | binds
B5 | binds
B6 | binds
B7 | binds
B8 | binds
